Results taken from US10441669B2, “Multifunctional chelators, complexes, and compositions thereof, and methods of using same” (ILLINOIS INSTITUTE OF TECHNOLOGY, priority 2013, dated 2019).
Values joined by “and” are separate entries in the source; they are usually repeats but may differ in a detail not shown here. Equal values may be shown once.

How the values were obtained:
Format in all cases: physicochemical
[1] = Radiolabeling efficiency of bimodal chelators with 177Lu; conditions: pH 5.5, RT, ITLC
[2] = Radiolabeling efficiency of 3p-C chelators with 177Lu; conditions: ITLC
[3] = Radiolabeling efficiency of 3p-C chelators with 90Y; conditions: ITLC
[4] = Radiolabeling efficiency of pyridyl-based chelators with 177Lu; conditions: RT
[5] = Radiolabeling of pyridyl-containing chelators with 64Cu; conditions: RT

O=C(O)CN(CCN1CCN(CCN(CC(=O)O)CC(=O)O)CCN(CC(CCCc2ccc([N+](=O)[O-])cc2)N(CC(=O)O)CC(=O)O)CC1)CC(=O)O (stereo not drawn) [Chelator 2, 2-{[2-(4-{2-[bis(carboxymethyl)amino]-5-(4-nitrophenyl)pentyl}-7-{2-[bis(carboxy-methyl)amino]ethyl}-1,4,7-triazonan-1-yl)ethyl](carboxymethyl)amino}acetic acid]
Radiolabeling efficiency (%) ([1]; 1 min): 81.6 ± 0.35% | Radiolabeling efficiency (%) ([1]; 10 min): 99.4 ± 0.07% | Radiolabeling efficiency (%) ([1]; 30 min): 99.8 ± 0.14% | Radiolabeling efficiency (%) ([1]; 60 min): 99.8 ± 0.14%

O=C(O)CN1CCN(CC(=O)O)CCN(CC(CCCc2ccc([N+](=O)[O-])cc2)N(CC(=O)O)CC(=O)O)CCN(CC(=O)O)CC1 (stereo not drawn) [Chelator 3p-C-DEPA, reference compound]
Radiolabeling efficiency (%) ([2]; pH 5.5, RT, 1 min): 94% and 93.9 ± 1.3% | Radiolabeling efficiency (%) ([2]; pH 5.5, RT, 10 min): 98.7 ± 0.2% | Radiolabeling efficiency (%) ([2]; pH 5.5, RT, 20 min): 99.2 ± 0.3% | Radiolabeling efficiency (%) ([2]; pH 5.5, RT, 30 min): 99.4 ± 0.1% | Radiolabeling efficiency (%) ([2]; pH 5.5, RT, 60 min): 99.3 ± 0.2% | Radiolabeling efficiency (%) ([3]; pH 5.5, RT, 1 min): 89% and 89.3 ± 2.8% | Radiolabeling efficiency (%) ([3]; pH 5.5, RT, 10 min): 96.8 ± 0.5% | Radiolabeling efficiency (%) ([3]; pH 5.5, RT, 20 min): 98.0 ± 0.9% | Radiolabeling efficiency (%) ([3]; pH 5.5, RT, 30 min): 97.9 ± 0.2% | Radiolabeling efficiency (%) ([3]; pH 5.5, RT, 60 min): 98.5 ± 0.2%

O=C(O)CNC(CCCc1ccc([N+](=O)[O-])cc1)CN1CCN(CC(=O)O)CCN(CC(=O)O)CCN(CC(=O)O)CC1 (stereo not drawn) [Chelator 3p-C-DETA, 2-{[5-(4-nitrophenyl)-1-[4,7,10-tris(carboxymethyl)-1,4,7,10-tetraazacyclododecan-1-yl]pentan-2-yl]amino}acetic acid]
Radiolabeling efficiency (%) ([2]; pH 5.5, RT, 1 min): 21% | Radiolabeling efficiency (%) ([2]; pH 7, RT, 1 min): > 85% and 85.2 ± 0.7% | Radiolabeling efficiency (%) ([2]; pH 7, RT, 10 min): > 99% and 99.8 ± 0.3% | Radiolabeling efficiency (%) ([2]; pH 7, RT, 20 min): 99.8 ± 0.1% | Radiolabeling efficiency (%) ([2]; pH 7, RT, 30 min): 99.9 ± 0.1% | Radiolabeling efficiency (%) ([2]; pH 7, RT, 60 min): 100.0 ± 0.1% | Radiolabeling efficiency (%) ([3]; pH 5.5, RT, 1 min): 7% | Radiolabeling efficiency (%) ([3]; pH 7, RT, 1 min): > 85% and 88.4 ± 1.9% | Radiolabeling efficiency (%) ([3]; pH 7, RT, 10 min): > 99% and 99.2 ± 0.58% | Radiolabeling efficiency (%) ([3]; pH 7, RT, 20 min): 99.3 ± 0.61% | Radiolabeling efficiency (%) ([3]; pH 7, RT, 30 min): 99.2 ± 0.72% | Radiolabeling efficiency (%) ([3]; pH 7, RT, 60 min): 99.5 ± 0.49%

O=C(O)CNC(CCCc1ccc([N+](=O)[O-])cc1)CN1CCN(CC(=O)O)CCN(CC(=O)O)CC1 (stereo not drawn) [Chelator 3p-C-NE3TA, 2-({1-[4,7-bis(carboxymethyl)-1,4,7-triazonan-1-yl]-5-(4-nitrophenyl)pentan-2-yl}amino)acetic acid]
Radiolabeling efficiency (%) ([2]; pH 5.5, RT, 1 min): 6.7 ± 0.1% | Radiolabeling efficiency (%) ([2]; pH 5.5, RT, 10 min): 36.6 ± 0.4% | Radiolabeling efficiency (%) ([2]; pH 5.5, RT, 20 min): 63.2 ± 0.8% | Radiolabeling efficiency (%) ([2]; pH 5.5, RT, 30 min): 78.1 ± 1.1% | Radiolabeling efficiency (%) ([3]; pH 5.5, RT, 1 min): 3.1 ± 0.28% | Radiolabeling efficiency (%) ([3]; pH 5.5, RT, 10 min): 22.5 ± 0.28% | Radiolabeling efficiency (%) ([3]; pH 5.5, RT, 20 min): 37.6 ± 0.64% | Radiolabeling efficiency (%) ([3]; pH 5.5, RT, 30 min): 49.1 ± 1.6% | Radiolabeling efficiency (%) ([3]; pH 5.5, RT, 60 min): 84% and 68.7 ± 3.4%

O=C(O)CN1CCN(CC(=O)O)CCN(C(CCCc2ccc([N+](=O)[O-])cc2)C(=O)O)CC1 (stereo not drawn) [Chelator 3p-C-NOTA, 2-[4,7-bis(carboxymethyl)-1,4,7-triazonan-1-yl]-5-(4-nitrophenyl)pentanoic acid]
Radiolabeling efficiency (%) ([2]; pH 5.5, RT, 1 min): 17.5 ± 0.5% | Radiolabeling efficiency (%) ([2]; pH 5.5, RT, 10 min): 81.3 ± 0.2% | Radiolabeling efficiency (%) ([2]; pH 5.5, RT, 20 min): 95.0 ± 0.2% | Radiolabeling efficiency (%) ([2]; pH 5.5, RT, 30 min): 99.1 ± 0.4% | Radiolabeling efficiency (%) ([3]; pH 5.5, RT, 1 min): 10.3 ± 0.6% | Radiolabeling efficiency (%) ([3]; pH 5.5, RT, 10 min): 50.8 ± 1.8% | Radiolabeling efficiency (%) ([3]; pH 5.5, RT, 20 min): 73.9 ± 0.6% | Radiolabeling efficiency (%) ([3]; pH 5.5, RT, 30 min): 82.7 ± 0.4% | Radiolabeling efficiency (%) ([3]; pH 5.5, RT, 60 min): 69% and 89.3 ± 0.1%

O=C(O)CN1CCN(CCN(CC(=O)O)Cc2ccccn2)CCN(CC(=O)O)CC1 [Chelator 4]
Lu-177 Labeling Efficiency (%) ([4]; pH 5.5, 1 min): 38.4 ± 2.4% | Lu-177 Labeling Efficiency (%) ([4]; pH 5.5, 5 min): 94.8 ± 0.35% | Lu-177 Labeling Efficiency (%) ([4]; pH 5.5, 30 min): 99.5 ± 0.35% | Lu-177 Labeling Efficiency (%) ([4]; pH 5.5, 60 min): 99.6 ± 0.28% | Labeling Efficiency (%) ([5]; pH 5.5, 1 min): 99.9 ± 0.0% | Labeling Efficiency (%) ([5]; pH 5.5, 10 min): 99.9 ± 0.0% | Labeling Efficiency (%) ([5]; pH 5.5, 30 min): 99.9 ± 0.07%
